Source: patent publication EP0461869A2, “Chemotherapeutic agents” (MERCK & CO. INC., priority 1990, dated 1991)
Part of at least one peptide drawing is inferred or uncertain, most often the ends. Where a SMILES comes first, the peptide text is derived from it. Where no end group is shown, it is not given here. The star is where a group is joined. Farnesyl = CC(C)=CCC/C(C)=C/CC/C(C)=C/C*

Tests used:
[1] = test system: farnesyl-protein transferase activity; assay: Farnesylation substrate test using [3H]FPP and bovine brain cytosol; assay type: biochemical; conditions: initial experiments with the peptide
[2] = test system: Farnesyl-protein transferase from bovine brain; assay: Competition of Ras farnesylation by polyisoprenoids and peptides; assay type: biochemical

**Q.** SSGCVLS [SSGCVLS] was tested. Which substrate for farnesylation [1] did it give?
**A.** is a substrate for farnesylation

**Q.** For `CC(C)=CCC/C(C)=C/CC/C(C)=C/CSC[C@H](N)C(=O)N[C@H](C(=O)N[C@@H](CC(C)C)C(=O)N[C@@H](CO)C(=O)O)C(C)C` [S-(trans, trans) farnesyl-CVLS] (H-C(Farnesyl)VLS-OH), which “potency relative to peptide alone (fold less potent)” value ([2]; compared with CVLS peptide alone) is on record?
**A.** approximately 10 fold

**Q.** How did the “potency compared to the respective CVLS derivatives” value ([2]; comparison in words) turn out when `CC[C@H](C)[C@H](NC(=O)[C@@H](NC(=O)[C@@H](N)CSC/C=C(\C)CC/C=C(\C)CCC=C(C)C)C(C)C)C(=O)N[C@@H](CCSC)C(=O)O` [S-(trans, trans) farnesyl-CVIM] (H-C(Farnesyl)VIM-OH) was run?
**A.** more potent
